# Laboratory results: the supplement of paper PMC8728848
# The list shows a part of the results.
# B1: Vd7LysM (Verticillium dahliae) (protein)
# chain: RRGPEPKYPPAAGTSSYCSYWVDYEGDKSCSRVLEDNVVVLKDFARWNPTVGADCSGIKAGNSYCVEAFGEPEPIEVTTTTRAATTTTQPTATTTTFANGIATPQPTQSGMVTNCNKFHWIAEGVSCSQVISFQKITLADFVKWNPSVKSDCSGMWAGVNVCVGVVGSSTDTAKPTTTAPSNGVVTPQPTQPSMVTNCNKFHWIAKGVTCQQVISYQKISLADFVKWNPSVLSDCSGMWAEVQVCVGVIGSTPTTLATTTTTAGNGVSTPLPTQPGMVTNCAKFHWVAKGVTCNQIYSFQKITLEQFVSYNPTVKSDCSGMQAEVQVCVGLIAGTTPTTTRPPTTTAPGNGVSTPQPTQPGMVTNCAKFHWVAKGVTCNQIYSFQKITLEQFVSFNPTVKSDCTGMQAEVNVCVGLIGGNPTPTQTGNGIATPTPIQPGMVSNCKKFHWIAQGVTCQQVISFQKITLADFVKWNTGVGSDCRTMWAETNVCVGV
# Columns and labels:
# Test in all cases: glycan array binding signal (z-score within array); higher = stronger binding
# Settings in all cases: glycan notation: IUPAC condensed, linker removed
# [1] = target: Fuc(a1-2)Gal(b1-4)GlcNAc(b1-3)Gal(b1-4)GlcNAc(b1-3)Gal(b1-4)GlcNAc
# Procedure, shortened: (§1)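 Columns mapping to the same glycan were averaged after glycan names were converted to IUPAC-condensed notation. The data come from 3228 arrays in the Consortium for Functional Glycomics database, limited to those with an available protein sequence. Binding is reported as a within-array Z-score averaged across arrays of one protein sequence and across linkers.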
# [2] = target: Fuc(a1-2)Gal(b1-4)GlcNAc(b1-3)GalNAc
# Procedure, shortened: as §1
# [3] = target: Fuc(a1-2)Gal(b1-4)GlcNAc(b1-3)[Fuc(a1-2)Gal(b1-4)GlcNAc(b1-6)]GalNAc
# Procedure, shortened: as §1
# [4] = target: Fuc(a1-2)Gal(b1-4)GlcNAc(b1-3)[Fuc(a1-3)[Gal(b1-4)]GlcNAc(b1-6)]Gal(b1-4)Glc
# Procedure, shortened: as §1
# [5] = target: Fuc(a1-2)Gal(b1-4)GlcNAc(b1-6)GalNAc
# Procedure, shortened: as §1
# [6] = target: Fuc(a1-2)Gal(b1-4)GlcNAc6S
# Procedure, shortened: as §1
# [7] = target: Fuc(a1-2)Gal(b1-4)[Fuc(a1-3)]GlcNAc
# Procedure, shortened: as §1
# [8] = target: Fuc(a1-2)Gal(b1-4)[Fuc(a1-3)]GlcNAc(b1-2)Man(a1-3)[Fuc(a1-2)Gal(b1-4)[Fuc(a1-3)]GlcNAc(b1-2)Man(a1-6)]Man(b1-4)GlcNAc(b1-4)[Fuc(a1-6)]GlcNAc
# Procedure, shortened: as §1
# [9] = target: Fuc(a1-2)Gal(b1-4)[Fuc(a1-3)]GlcNAc(b1-2)[Fuc(a1-2)Gal(b1-4)[Fuc(a1-3)]GlcNAc(b1-4)]Man(a1-3)[Fuc(a1-2)Gal(b1-4)[Fuc(a1-3)]GlcNAc(b1-2)Man(a1-6)]Man(b1-4)GlcNAc(b1-4)GlcNAc
# Procedure, shortened: as §1
# [10] = target: Fuc(a1-2)Gal(b1-4)[Fuc(a1-3)]GlcNAc(b1-3)Gal(b1-4)[Fuc(a1-3)]GlcNAc
# Procedure, shortened: as §1
# [11] = target: Fuc(a1-2)Gal(b1-4)[Fuc(a1-3)]GlcNAc(b1-3)Gal(b1-4)[Fuc(a1-3)]GlcNAc(b1-3)Gal(b1-4)[Fuc(a1-3)]GlcNAc
# Procedure, shortened: as §1
# [12] = target: Fuc(a1-2)Gal(b1-4)[Fuc(a1-3)]GlcNAc(b1-3)GalNAc
# Procedure, shortened: as §1
# [13] = target: Fuc(a1-2)Gal(b1-4)[Fuc(a1-3)]GlcNAc(b1-3)[Neu5Ac(a2-6)Gal(b1-4)GlcNAc(b1-6)]Gal(b1-4)Glc
# Procedure, shortened: as §1
# [14] = target: Fuc(a1-2)Gal3S(b1-4)GlcNAc
# Procedure, shortened: as §1
# [15] = target: Fuc(a1-2)Gal6S(b1-3)GlcNAc
# Procedure, shortened: as §1
# [16] = target: Fuc(a1-2)Gal6S(b1-3)GlcNAc6S
# Procedure, shortened: as §1
# [17] = target: Fuc(a1-2)Gal6S(b1-4)Glc
# Procedure, shortened: as §1
# [18] = target: Fuc(a1-2)Gal6S(b1-4)Glc6S
# Procedure, shortened: as §1
# [19] = target: Fuc(a1-2)[Gal(a1-3)]Gal
# Procedure, shortened: as §1
# [20] = target: Fuc(a1-2)[Gal(a1-3)]Gal(b1-3)GalNAc
# Procedure, shortened: as §1
# [21] = target: Fuc(a1-2)[Gal(a1-3)]Gal(b1-3)GalNAc(b1-3)Gal(a1-4)Gal(b1-4)Glc
# Procedure, shortened: as §1
# [22] = target: Fuc(a1-2)[Gal(a1-3)]Gal(b1-3)GlcNAc
# Procedure, shortened: as §1
# [23] = target: Fuc(a1-2)[Gal(a1-3)]Gal(b1-3)GlcNAc(b1-2)Man(a1-3)[Fuc(a1-2)[Gal(a1-3)]Gal(b1-3)GlcNAc(b1-2)Man(a1-6)]Man(b1-4)GlcNAc(b1-4)GlcNAc
# Procedure, shortened: as §1
# [24] = target: Fuc(a1-2)[Gal(a1-3)]Gal(b1-3)GlcNAc(b1-2)Man(a1-3)[Fuc(a1-2)[Gal(a1-3)]Gal(b1-3)GlcNAc(b1-2)Man(a1-6)]Man(b1-4)GlcNAc(b1-4)[Fuc(a1-6)]GlcNAc
# Procedure, shortened: as §1
# [25] = target: Fuc(a1-2)[Gal(a1-3)]Gal(b1-3)GlcNAc(b1-3)GalNAc
# Procedure, shortened: as §1
# [26] = target: Fuc(a1-2)[Gal(a1-3)]Gal(b1-3)GlcNAc(b1-6)GalNAc
# Procedure, shortened: as §1
# [27] = target: Fuc(a1-2)[Gal(a1-3)]Gal(b1-4)Glc
# Procedure, shortened: as §1
# [28] = target: Fuc(a1-2)[Gal(a1-3)]Gal(b1-4)GlcNAc
# Procedure, shortened: as §1
# [29] = target: Fuc(a1-2)[Gal(a1-3)]Gal(b1-4)GlcNAc(b1-2)Man
# Procedure, shortened: as §1
# [30] = target: Fuc(a1-2)[Gal(a1-3)]Gal(b1-4)GlcNAc(b1-2)Man(a1-3)[Fuc(a1-2)[Gal(a1-3)]Gal(b1-4)GlcNAc(b1-2)Man(a1-6)]Man(b1-4)GlcNAc(b1-4)GlcNAc
# Procedure, shortened: as §1
# [31] = target: Fuc(a1-2)[Gal(a1-3)]Gal(b1-4)GlcNAc(b1-2)Man(a1-3)[Fuc(a1-2)[Gal(a1-3)]Gal(b1-4)GlcNAc(b1-2)Man(a1-6)]Man(b1-4)GlcNAc(b1-4)[Fuc(a1-6)]GlcNAc
# Procedure, shortened: as §1
# [32] = target: Fuc(a1-2)[Gal(a1-3)]Gal(b1-4)GlcNAc(b1-3)GalNAc
# Procedure, shortened: as §1
# [33] = target: Fuc(a1-2)[Gal(a1-3)]Gal(b1-4)GlcNAc(b1-3)[Fuc(a1-2)[Gal(a1-3)]Gal(b1-4)GlcNAc(b1-6)]GalNAc
# Procedure, shortened: as §1
# [34] = target: Fuc(a1-2)[Gal(a1-3)]Gal(b1-4)GlcNAc(b1-6)GalNAc
# Procedure, shortened: as §1
# [35] = target: Fuc(a1-2)[Gal(a1-3)]Gal(b1-4)[Fuc(a1-3)]Glc
# Procedure, shortened: as §1
# [36] = target: Fuc(a1-2)[Gal(a1-3)]Gal(b1-4)[Fuc(a1-3)]GlcNAc
# Procedure, shortened: as §1
# [37] = target: Fuc(a1-2)[Gal(a1-3)]Gal(b1-4)[Fuc(a1-3)]GlcNAc(b1-3)GalNAc
# Procedure, shortened: as §1
binder,measurement,setting,value
B1,glycan array binding signal (z-score),[1],3.25
same,glycan array binding signal (z-score),[2],0.678
same,glycan array binding signal (z-score),[3],-0.836
same,glycan array binding signal (z-score),[4],-0.245
same,glycan array binding signal (z-score),[5],0.512
same,glycan array binding signal (z-score),[6],2.14
same,glycan array binding signal (z-score),[7],0.288
same,glycan array binding signal (z-score),[8],2.24
same,glycan array binding signal (z-score),[9],0.129
same,glycan array binding signal (z-score),[10],1.8
same,glycan array binding signal (z-score),[11],-0.384
same,glycan array binding signal (z-score),[12],1.17
same,glycan array binding signal (z-score),[13],-0.181
same,glycan array binding signal (z-score),[14],-1.02
same,glycan array binding signal (z-score),[15],-0.291
same,glycan array binding signal (z-score),[16],-0.732
same,glycan array binding signal (z-score),[17],-0.066
same,glycan array binding signal (z-score),[18],0.638
same,glycan array binding signal (z-score),[19],0.38
same,glycan array binding signal (z-score),[20],-0.534
same,glycan array binding signal (z-score),[21],-1.54
same,glycan array binding signal (z-score),[22],-0.681
same,glycan array binding signal (z-score),[23],1.06
same,glycan array binding signal (z-score),[24],0.42
same,glycan array binding signal (z-score),[25],-0.679
same,glycan array binding signal (z-score),[26],-0.24
same,glycan array binding signal (z-score),[27],0.731
same,glycan array binding signal (z-score),[28],0.191
same,glycan array binding signal (z-score),[29],0.793
same,glycan array binding signal (z-score),[30],-1.74
same,glycan array binding signal (z-score),[31],-1.3
same,glycan array binding signal (z-score),[32],0.726
same,glycan array binding signal (z-score),[33],-0.425
same,glycan array binding signal (z-score),[34],0.845
same,glycan array binding signal (z-score),[35],0.734
same,glycan array binding signal (z-score),[36],0.347
same,glycan array binding signal (z-score),[37],0.585

# Nothing new here: an excerpt of the list.
binder,measurement,setting,value
B1,glycan array binding signal (z-score),[4],-0.245
same,glycan array binding signal (z-score),[5],0.512
